The list shows a part of the results, in another mix than the full data.
Compound: COC(=O)C#Cc1ccccc1 [methyl 3-phenylpropiolate]
Test: log2 ratio of iodoacetamide-alkyne labeling of the cysteine site, DMSO over compound (competition); higher = stronger covalent engagement of the cysteine by the compound, active = 1 or more
Conditions: 500 µM; treatment time 1 h; system: HEK293T cell lysate
Method in brief: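 For each cysteine, the log2 competition ratio is mean control-channel reporter intensity over mean compound-channel reporter intensity. HEK293T lysate (2 mg/mL) was exposed to vehicle or electrophile (500 µM, 1 h, ambient temperature), labelled with iodoacetamide alkyne (1 h), clicked to sCIP-TMT reagents, digested overnight with trypsin at 37 °C, streptavidin-enriched and analysed by Orbitrap Eclipse LC-MS/MS with FAIMS and FragPipe. Cysteines quantified in only one of three replicates, each with duplicate channels, were excluded.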

Protein sequences, listed by entry. Tags and fused reporters are not part of them. Lines headed by an entry give the natural chain unless they say otherwise; changes in a name come on top.
UniProt P20042, whole entry, looked up: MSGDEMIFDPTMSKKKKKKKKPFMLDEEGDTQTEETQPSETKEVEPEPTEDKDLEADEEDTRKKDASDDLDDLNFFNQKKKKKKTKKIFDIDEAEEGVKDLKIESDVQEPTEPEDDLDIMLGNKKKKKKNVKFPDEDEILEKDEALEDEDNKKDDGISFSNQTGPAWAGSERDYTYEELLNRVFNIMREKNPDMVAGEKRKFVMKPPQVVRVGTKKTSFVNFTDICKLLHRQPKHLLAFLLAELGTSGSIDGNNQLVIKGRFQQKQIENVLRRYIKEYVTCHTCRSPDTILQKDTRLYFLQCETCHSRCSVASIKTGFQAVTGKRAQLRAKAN
UniProt P22102: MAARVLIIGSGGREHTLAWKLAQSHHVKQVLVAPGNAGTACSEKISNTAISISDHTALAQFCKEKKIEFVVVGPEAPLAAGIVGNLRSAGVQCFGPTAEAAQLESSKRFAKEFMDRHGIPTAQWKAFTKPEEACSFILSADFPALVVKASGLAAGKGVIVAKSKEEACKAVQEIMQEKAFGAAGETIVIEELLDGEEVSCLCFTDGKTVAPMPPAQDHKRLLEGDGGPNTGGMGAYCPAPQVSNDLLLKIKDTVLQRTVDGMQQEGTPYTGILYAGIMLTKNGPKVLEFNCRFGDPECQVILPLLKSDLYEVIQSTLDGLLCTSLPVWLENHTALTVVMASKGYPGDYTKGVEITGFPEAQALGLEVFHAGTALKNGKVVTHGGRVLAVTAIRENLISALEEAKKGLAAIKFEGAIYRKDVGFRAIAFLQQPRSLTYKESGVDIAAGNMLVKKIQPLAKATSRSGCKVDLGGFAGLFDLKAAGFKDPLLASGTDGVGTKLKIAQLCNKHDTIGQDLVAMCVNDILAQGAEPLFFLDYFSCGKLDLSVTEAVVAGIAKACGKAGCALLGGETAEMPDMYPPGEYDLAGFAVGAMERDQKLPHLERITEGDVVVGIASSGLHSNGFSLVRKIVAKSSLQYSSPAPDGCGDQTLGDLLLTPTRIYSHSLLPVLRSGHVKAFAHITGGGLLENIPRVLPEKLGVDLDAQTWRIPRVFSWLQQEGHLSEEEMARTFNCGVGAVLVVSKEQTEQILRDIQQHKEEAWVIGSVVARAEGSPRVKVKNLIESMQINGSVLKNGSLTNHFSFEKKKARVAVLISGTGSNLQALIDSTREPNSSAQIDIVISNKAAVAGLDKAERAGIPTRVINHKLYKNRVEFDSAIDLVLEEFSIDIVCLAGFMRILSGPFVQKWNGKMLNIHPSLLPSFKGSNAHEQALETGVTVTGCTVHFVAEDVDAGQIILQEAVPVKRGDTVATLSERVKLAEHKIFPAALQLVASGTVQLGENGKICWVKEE
UniProt P27707: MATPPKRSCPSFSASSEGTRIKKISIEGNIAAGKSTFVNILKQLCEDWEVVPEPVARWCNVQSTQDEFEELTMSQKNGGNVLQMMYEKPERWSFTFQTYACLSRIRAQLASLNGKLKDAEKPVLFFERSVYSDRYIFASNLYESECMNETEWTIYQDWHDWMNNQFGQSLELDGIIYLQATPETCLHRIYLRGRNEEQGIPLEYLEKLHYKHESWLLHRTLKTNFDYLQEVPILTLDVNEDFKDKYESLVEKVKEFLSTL
UniProt P18031: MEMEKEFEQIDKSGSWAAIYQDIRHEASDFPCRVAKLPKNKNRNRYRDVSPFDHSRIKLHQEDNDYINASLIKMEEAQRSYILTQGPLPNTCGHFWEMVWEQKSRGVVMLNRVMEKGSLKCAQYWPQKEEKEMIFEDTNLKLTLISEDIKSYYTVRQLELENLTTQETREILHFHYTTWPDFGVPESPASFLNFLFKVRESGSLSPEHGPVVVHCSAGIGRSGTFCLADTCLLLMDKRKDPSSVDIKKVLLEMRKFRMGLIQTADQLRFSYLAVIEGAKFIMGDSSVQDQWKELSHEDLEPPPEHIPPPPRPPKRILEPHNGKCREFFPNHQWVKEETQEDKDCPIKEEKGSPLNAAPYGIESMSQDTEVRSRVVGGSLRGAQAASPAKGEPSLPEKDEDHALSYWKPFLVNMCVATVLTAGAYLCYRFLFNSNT
UniProt P17987, whole entry, looked up: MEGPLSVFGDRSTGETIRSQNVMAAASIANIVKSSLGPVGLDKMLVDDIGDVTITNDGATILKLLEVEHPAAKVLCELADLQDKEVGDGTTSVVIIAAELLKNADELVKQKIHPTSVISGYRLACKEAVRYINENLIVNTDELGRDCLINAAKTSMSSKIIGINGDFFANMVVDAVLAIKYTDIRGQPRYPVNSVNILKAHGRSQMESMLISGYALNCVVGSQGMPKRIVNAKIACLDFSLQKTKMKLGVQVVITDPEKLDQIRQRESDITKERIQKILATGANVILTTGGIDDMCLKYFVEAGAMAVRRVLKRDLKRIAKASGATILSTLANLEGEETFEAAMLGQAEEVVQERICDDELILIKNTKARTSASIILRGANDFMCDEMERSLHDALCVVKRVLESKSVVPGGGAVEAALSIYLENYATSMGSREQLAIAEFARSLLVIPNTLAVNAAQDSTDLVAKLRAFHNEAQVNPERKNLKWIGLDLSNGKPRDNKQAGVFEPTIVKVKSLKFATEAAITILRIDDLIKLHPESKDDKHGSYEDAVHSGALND
UniProt P21333, whole entry, looked up: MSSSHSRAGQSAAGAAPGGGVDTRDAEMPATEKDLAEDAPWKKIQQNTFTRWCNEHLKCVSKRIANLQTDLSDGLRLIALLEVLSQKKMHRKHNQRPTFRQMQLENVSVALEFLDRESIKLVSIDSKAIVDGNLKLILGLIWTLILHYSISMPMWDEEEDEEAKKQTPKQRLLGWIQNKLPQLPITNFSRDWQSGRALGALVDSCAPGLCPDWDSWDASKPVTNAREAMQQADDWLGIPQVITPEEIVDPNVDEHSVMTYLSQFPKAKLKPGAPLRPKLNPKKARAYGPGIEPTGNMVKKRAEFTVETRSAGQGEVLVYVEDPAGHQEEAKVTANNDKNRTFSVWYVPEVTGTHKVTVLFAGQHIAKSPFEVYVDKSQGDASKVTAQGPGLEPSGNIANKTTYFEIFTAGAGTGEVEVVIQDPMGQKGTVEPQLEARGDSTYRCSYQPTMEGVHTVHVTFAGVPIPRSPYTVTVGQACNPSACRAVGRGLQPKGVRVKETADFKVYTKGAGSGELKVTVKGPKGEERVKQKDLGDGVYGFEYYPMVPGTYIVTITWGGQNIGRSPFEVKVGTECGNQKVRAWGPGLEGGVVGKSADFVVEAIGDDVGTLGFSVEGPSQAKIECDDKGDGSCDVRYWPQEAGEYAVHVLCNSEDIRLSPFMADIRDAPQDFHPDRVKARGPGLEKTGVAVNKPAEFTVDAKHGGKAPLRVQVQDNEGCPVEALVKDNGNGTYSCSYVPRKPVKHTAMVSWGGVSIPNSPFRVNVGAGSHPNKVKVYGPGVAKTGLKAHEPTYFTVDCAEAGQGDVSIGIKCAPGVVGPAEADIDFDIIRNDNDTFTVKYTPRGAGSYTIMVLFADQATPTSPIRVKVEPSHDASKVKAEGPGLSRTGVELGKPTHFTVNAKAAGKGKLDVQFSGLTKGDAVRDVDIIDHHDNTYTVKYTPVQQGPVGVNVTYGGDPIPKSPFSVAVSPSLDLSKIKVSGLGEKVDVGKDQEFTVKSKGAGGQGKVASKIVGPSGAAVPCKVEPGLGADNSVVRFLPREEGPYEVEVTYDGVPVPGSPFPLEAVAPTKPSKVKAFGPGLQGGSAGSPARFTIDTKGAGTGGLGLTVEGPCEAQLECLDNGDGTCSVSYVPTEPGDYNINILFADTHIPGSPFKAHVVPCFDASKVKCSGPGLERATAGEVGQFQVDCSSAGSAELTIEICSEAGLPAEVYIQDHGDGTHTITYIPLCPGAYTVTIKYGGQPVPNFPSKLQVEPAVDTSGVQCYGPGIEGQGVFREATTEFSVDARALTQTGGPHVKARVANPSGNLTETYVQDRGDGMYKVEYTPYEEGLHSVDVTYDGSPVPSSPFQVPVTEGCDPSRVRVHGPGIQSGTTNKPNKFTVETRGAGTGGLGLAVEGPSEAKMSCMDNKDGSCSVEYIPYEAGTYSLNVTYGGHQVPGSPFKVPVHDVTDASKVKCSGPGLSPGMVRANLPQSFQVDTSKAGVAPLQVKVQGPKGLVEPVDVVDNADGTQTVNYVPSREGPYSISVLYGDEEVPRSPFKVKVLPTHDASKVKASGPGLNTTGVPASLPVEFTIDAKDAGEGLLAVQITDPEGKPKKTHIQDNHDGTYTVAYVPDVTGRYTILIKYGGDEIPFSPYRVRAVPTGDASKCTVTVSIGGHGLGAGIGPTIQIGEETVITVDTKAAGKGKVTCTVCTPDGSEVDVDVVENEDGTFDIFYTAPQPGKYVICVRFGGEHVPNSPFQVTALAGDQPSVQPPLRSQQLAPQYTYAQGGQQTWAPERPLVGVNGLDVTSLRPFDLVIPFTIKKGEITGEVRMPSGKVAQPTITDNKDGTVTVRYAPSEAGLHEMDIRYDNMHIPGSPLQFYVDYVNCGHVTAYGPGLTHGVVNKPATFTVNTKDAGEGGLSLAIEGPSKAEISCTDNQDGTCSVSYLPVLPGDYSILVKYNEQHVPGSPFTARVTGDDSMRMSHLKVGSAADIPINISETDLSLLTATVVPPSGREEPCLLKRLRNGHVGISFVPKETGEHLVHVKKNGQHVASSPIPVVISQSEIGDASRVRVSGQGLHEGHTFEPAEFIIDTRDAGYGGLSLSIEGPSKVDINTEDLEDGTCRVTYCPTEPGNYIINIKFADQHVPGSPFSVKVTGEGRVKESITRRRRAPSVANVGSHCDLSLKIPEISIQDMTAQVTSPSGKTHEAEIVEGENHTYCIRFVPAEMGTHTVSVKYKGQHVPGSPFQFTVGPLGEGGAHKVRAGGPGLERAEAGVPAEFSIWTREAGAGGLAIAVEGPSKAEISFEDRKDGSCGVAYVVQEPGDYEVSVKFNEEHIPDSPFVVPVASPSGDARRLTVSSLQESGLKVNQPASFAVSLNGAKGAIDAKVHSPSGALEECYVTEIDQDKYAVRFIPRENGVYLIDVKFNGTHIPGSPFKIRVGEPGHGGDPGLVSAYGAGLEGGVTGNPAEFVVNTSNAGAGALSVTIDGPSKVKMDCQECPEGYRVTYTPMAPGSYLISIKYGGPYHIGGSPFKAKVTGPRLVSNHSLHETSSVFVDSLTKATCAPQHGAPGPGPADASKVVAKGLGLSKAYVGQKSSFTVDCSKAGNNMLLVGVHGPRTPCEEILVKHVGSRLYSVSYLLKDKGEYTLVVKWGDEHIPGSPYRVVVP
UniProt P23528, whole entry, looked up: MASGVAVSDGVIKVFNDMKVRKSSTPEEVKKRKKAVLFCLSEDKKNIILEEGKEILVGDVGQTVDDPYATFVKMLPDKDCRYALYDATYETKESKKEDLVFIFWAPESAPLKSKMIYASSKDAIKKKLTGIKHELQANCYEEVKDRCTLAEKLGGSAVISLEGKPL
UniProt P30044: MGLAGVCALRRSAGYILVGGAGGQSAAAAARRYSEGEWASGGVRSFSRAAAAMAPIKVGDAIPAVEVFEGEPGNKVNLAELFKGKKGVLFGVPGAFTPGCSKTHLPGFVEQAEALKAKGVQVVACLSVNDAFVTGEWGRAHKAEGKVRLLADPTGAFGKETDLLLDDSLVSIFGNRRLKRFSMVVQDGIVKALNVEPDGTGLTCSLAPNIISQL
UniProt P24752: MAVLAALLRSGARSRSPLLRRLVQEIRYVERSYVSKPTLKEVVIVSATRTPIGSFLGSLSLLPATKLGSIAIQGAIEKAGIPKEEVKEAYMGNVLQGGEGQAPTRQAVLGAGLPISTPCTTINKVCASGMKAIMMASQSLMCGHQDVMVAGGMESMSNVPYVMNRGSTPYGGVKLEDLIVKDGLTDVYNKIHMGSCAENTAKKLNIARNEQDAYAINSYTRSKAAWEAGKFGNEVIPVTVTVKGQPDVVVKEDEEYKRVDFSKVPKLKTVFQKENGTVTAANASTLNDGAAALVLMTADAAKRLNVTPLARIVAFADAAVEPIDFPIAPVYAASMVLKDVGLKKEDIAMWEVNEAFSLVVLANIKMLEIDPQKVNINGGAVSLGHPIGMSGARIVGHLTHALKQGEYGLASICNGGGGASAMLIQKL
UniProt P19404, whole entry: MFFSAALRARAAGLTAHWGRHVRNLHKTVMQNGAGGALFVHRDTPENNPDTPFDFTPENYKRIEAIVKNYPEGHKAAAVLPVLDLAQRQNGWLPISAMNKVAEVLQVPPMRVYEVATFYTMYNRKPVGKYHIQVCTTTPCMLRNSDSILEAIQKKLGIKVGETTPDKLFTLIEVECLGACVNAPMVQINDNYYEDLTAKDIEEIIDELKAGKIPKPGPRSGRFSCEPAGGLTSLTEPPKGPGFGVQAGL
UniProt P23919: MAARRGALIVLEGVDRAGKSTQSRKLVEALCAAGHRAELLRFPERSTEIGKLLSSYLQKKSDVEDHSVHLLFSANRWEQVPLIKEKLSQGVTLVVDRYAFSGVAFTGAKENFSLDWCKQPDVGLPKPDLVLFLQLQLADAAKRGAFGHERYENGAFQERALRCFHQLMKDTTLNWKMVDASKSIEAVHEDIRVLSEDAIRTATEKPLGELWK

| Target | log2 ratio of iodoacetamide-alkyne labeling |
| --- | --- |
| UniProt P25398_C69 | inactive: -0.126 |
| TPP2 C150 (UniProt P29144) | inactive: 0.159 |
| EIF2S2 C302 (UniProt P20042) | inactive: -0.0112 |
| GART C168 (UniProt P22102) | inactive: 0.475 |
| MAP4 C635 (UniProt P27816) | inactive: 0.334 |
| RRM1 C492 (UniProt P23921) | inactive: 0.419 |
| GART C237 (UniProt P22102) | inactive: 0.417 |
| CANX C160 (UniProt P27824) | inactive: 0.611 |
| ATP6V1C1 C15 (UniProt P21283) | inactive: 0.0079 |
| RPL12 C162 (UniProt P30050) | inactive: 0.191 |
| DCK C9 (UniProt P27707) | active: 1.15 |
| PLCG1 C976 (UniProt P19174) | active: 1.9 |
| LIG1 C532 (UniProt P18858) | inactive: 0.442 |
| APEX1 C208 (UniProt P27695) | inactive: -0.225 |
| PTPN1 C32 (UniProt P18031) | inactive: 0.0778 |
| DNMT1 C1478 (UniProt P26358) | inactive: 0.24 |
| DNMT1 C1226 (UniProt P26358) | inactive: -0.0963 |
| RPS3 C134 (UniProt P23396) | inactive: -0.271 |
| TCP1 C385 (UniProt P17987) | inactive: 0.135 |

Quoted from above (2 entries):

| Target | log2 ratio of iodoacetamide-alkyne labeling |
| --- | --- |
| ATP6V1C1 C15 (UniProt P21283) | inactive: 0.0079 |
| RPL12 C162 (UniProt P30050) | inactive: 0.191 |

Further results follow:

| Target | log2 ratio of iodoacetamide-alkyne labeling |
| --- | --- |
| UniProt P26639_C656 | inactive: 0.155 |
| TPP2 C28 (UniProt P29144) | inactive: 0.00516 |
| PSMC3 C240 (UniProt P17980) | inactive: 0.0788 |
| FLNA C2479 (UniProt P21333) | inactive: 0.205 |
| PLCG1 C247 (UniProt P19174) | inactive: 0.104 |
| FLNA C2107 (UniProt P21333) | inactive: 0.12 |
| APC C352 (UniProt P25054) | inactive: -0.211 |
| SON C2380 (UniProt P18583) | inactive: 0.383 |
| UniProt P25705_C294 | inactive: 0.133 |
| CFL1 C39 (UniProt P23528) | inactive: -0.222 |
| PRDX5 C204 (UniProt P30044) | inactive: 0.322 |
| ACAT1 C413 (UniProt P24752) | inactive: 0.182 |
| NDUFV2 C225 (UniProt P19404) | inactive: 0.2 |
| CAD C1889 (UniProt P27708) | inactive: 0.219 |
| FDXR C353 (UniProt P22570) | inactive: 0.474 |
| DNAJB1 C179 (UniProt P25685) | inactive: 0.262 |
| MSN C284 (UniProt P26038) | inactive: -0.16 |
| PTBP1 C23 (UniProt P26599) | inactive: 0.39 |
| DTYMK C163 (UniProt P23919) | inactive: 0.131 |

From the supplement of paper PMC11006884
